Results: PubChem BioAssay AID328 (DTP/NCI, 2004)
The list does not hold the whole screen: it gathers tests that were run many times, whatever their T/C, doses with no T/C, and many T/C values between a quarter and a half above the control. Further doses and runs are listed elsewhere. T/C gives the treated animals as a percentage of the vehicle group. Some doses have a count of surviving animals in place of a T/C: the source holds a T/C of zero for them, seemingly a mark for toxic or unscored doses. Some survivor counts are full or nearly so, which does not show that the dose was tolerated: the source hardly ever lists a survival T/C far under the control, and the zero likely stands for such cases as well. Survivors were counted at the toxicity check, usually on the fifth day, unless a day is given; later deaths do not show. Schedules are NCI's codes, read here as Q, the interval in days (D) or hours (H), X, the number of doses. Some entries hold several experiments; the values are given in rising order. Where survival is the endpoint, the PubChem record calls one and a half times the control and up active, and a quarter to a half above the control has no call in these data; cut-offs in other NCI protocols can differ. Some T/C values are followed by the survivors on the day toxicity was checked, most often the fifth; without a count, all were alive then.

Tested on: BDF1 mice, P388 leukemia ip, median survival T/C
Assay: NCI In Vivo Anticancer Drug Screen. Data for tumor model P388 Leukemia (intraperitoneal) in B6D2F1 (BDF1) mice
Details: T/C endpoint: median survival time, higher T/C = longer survival
How it was run: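 Survival ratio, drug arm over vehicle arm, in mice with a transplanted tumour.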

[1] = dose: 400.0 mg/kg/injection, schedule: Q01DX009 (ip), vehicle: saline with Tween-80
[2] = dose: 100.0 mg/kg/injection, schedule: Q01DX009 (ip), vehicle: saline with Tween-80
[3] = dose: 50.0 mg/kg/injection, schedule: Q01DX009 (ip), vehicle: saline
[4] = dose: 400.0 mg/kg/injection, schedule: Q01DX009 (ip), vehicle: Klucel (hydroxypropylcellulose) (HPC)
[5] = dose: 100.0 mg/kg/injection, schedule: Q01DX009 (ip), vehicle: Klucel (hydroxypropylcellulose) (HPC)
[6] = dose: 200.0 mg/kg/injection, schedule: Q01DX009 (ip), vehicle: Klucel (hydroxypropylcellulose) (HPC)
[7] = dose: 60.0 mg/kg/injection, schedule: Q01DX009 (ip), vehicle: Klucel (hydroxypropylcellulose) (HPC)
[8] = dose: 200.0 mg/kg/injection, schedule: Q04DX003 (ip), vehicle: Klucel (hydroxypropylcellulose) (HPC)

CN(Cc1cnc2nc(N)nc(N)c2n1)c1c(Cl)cc(C(=O)NC(CCC(=O)O)C(=O)O)cc1Br (stereo not given) was tested. Which T/C (dose: 0.7 mg/kg/injection, schedule: Q04DX003 (ip), vehicle: saline) did it give?
Its T/C is 131 % of control.

What about the T/C (dose: 1.8 mg/kg/injection, schedule: Q04DX003 (ip), vehicle: saline) of the same compound?
Its T/C is 145 % of control.

And the T/C (dose: 2.7 mg/kg/injection, schedule: Q04DX003 (ip), vehicle: saline)?
Its T/C is 140 % of control.

What about the T/C (dose: 4.2 mg/kg/injection, schedule: Q04DX003 (ip), vehicle: saline) of the same compound?
The T/C was 131 % of control.

And the T/C (dose: 9.6 mg/kg/injection, schedule: Q04DX003 (ip), vehicle: saline)?
Its T/C is 127 % of control.

And the T/C (dose: 14.0 mg/kg/injection, schedule: Q04DX003 (ip), vehicle: saline)?
The T/C was 136 % of control.

What about the T/C (dose: 22.0 mg/kg/injection, schedule: Q04DX003 (ip), vehicle: saline) of the same compound?
Its T/C is 136 % of control.

What about the T/C (dose: 35.0 mg/kg/injection, schedule: Q04DX003 (ip), vehicle: saline) of the same compound?
The T/C was 145 % of control [5 of 6 alive].

What about the survivor count [1] of the same compound?
Its survivor count is 6 of 6.

Which survivor count (dose: 400.0 mg/kg/injection, schedule: Q01DX009 (ip), vehicle: saline) does the source give for COc1cc(C=NC(CO)C(=O)O)ccc1O.COc1cc(C=NC(CO)C(=O)O)ccc1O.[Fe] (stereo not given) here?
The survivor count was 6 of 6.

Which survivor count (dose: 20.0 mg/kg/injection, schedule: Q01DX010 (ip), vehicle: saline) does the source give for c1ccc(COCC[P+](c2ccccc2)(c2ccccc2)c2ccccc2)cc1 here?
The survivor count was 1 of 6.

Which survivor count (dose: 50.0 mg/kg/injection, schedule: Q01DX009 (ip), vehicle: saline with Tween-80) does the source give for CN(C)c1nc(NC(=O)NC(=O)c2c(F)cccc2F)nc(N(C)C)n1 here?
The survivor count was 6 of 6.

What about the survivor count [2] of the same compound?
The survivor count was 6 of 6.

What does the source list for CCS/C(N)=N\N?
survivor count [3]: 3 of 5; survivor count (dose: 100.0 mg/kg/injection, schedule: Q04DX003 (ip), vehicle: saline): 3 of 6

For COc1ccc(CNCCO)cc1, which survivor count (dose: 200.0 mg/kg/injection, schedule: Q04DX003 (ip), vehicle: saline) is on record?
The survivor count was 6 of 6.

Which survivor count (dose: 100.0 mg/kg/injection, schedule: Q01DX001 (ip), vehicle: saline sonified) does the source give for CCCCCCCCCCCCCCCCSCCCCCCCCCCCSCCCCCCCCCCCCCCCC here?
Its survivor count is 6 of 6.

Which survivor count [4] does the source give for COc1ccc(C2CCCCC2O)cc1 (stereo not given) here?
Its survivor count is 2 of 6.

How did the T/C (dose: 1.5 mg/kg/injection, schedule: Q01DX010 (ip), vehicle: saline) turn out when Nc1ncnc2[nH]ncc12 was run?
Its T/C is 125 % of control.

And the T/C (dose: 6.0 mg/kg/injection, schedule: Q01DX010 (ip), vehicle: saline)?
Its T/C is 125 % of control.

Which results are given for C1=C(CC2=C[P+](c3ccccc3)(c3ccccc3)C=C(c3ccccc3)O2)OC(c2ccccc2)=C[P+]1(c1ccccc1)c1ccccc1?
survivor count (dose: 50.0 mg/kg/injection, schedule: Q01DX005 (ip), vehicle: saline with Tween-80): 1 of 5; survivor count (dose: 100.0 mg/kg/injection, schedule: Q01DX005 (ip), vehicle: saline with Tween-80): 0 of 5; survivor count (dose: 200.0 mg/kg/injection, schedule: Q01DX005 (ip), vehicle: saline with Tween-80): 0 of 5

With O=[N+]([O-])c1ccc(S(=O)(=O)Cc2ccccc2)c2c1no[n+]2[O-] as the compound, how does the survivor count [2] read?
The survivor count was 3 of 7.

How did the survivor count (dose: 80.0 mg/kg/injection, schedule: Q01DX010 (ip), vehicle: steroid suspending solution) turn out when C=C1C(=O)O[C@H]2[C@H]1[C@H](OC(=O)/C(C)=C\C)C[C@]1(CO1)[C@@H]1[C@H](OC(C)=O)C=C(C)[C@]21O was run?
The survivor count was 6 of 6.

Which survivor count [3] does the source give for Nc1cc(NC(=O)c2ccc(Cl)cc2)ccc1S(=O)(=O)O here?
The survivor count was 6 of 6.

Which T/C (dose: 25.0 mg/kg/injection, schedule: Q01DX009 (ip), vehicle: saline with Tween-80) does the source give for FC(F)c1nc2nc(Cl)c(Cl)nc2[nH]1 here?
Its T/C is 125 % of control.

And the T/C (dose: 30.0 mg/kg/injection, schedule: Q01DX009 (ip), vehicle: saline with Tween-80)?
Its T/C is 130 % of control.

And the T/C (dose: 60.0 mg/kg/injection, schedule: Q01DX009 (ip), vehicle: saline with Tween-80)?
Its T/C is 130 % of control.

What about the T/C (dose: 75.0 mg/kg/injection, schedule: Q01DX009 (ip), vehicle: saline with Tween-80) of the same compound?
The T/C was 140 % of control.

What about the survivor count (dose: 90.0 mg/kg/injection, schedule: Q01DX009 (ip), vehicle: saline with Tween-80) of the same compound?
The survivor count was 3 of 6.

And the survivor count (dose: 200.0 mg/kg/injection, schedule: Q04DX003 (ip), vehicle: saline with Tween-80)?
Its survivor count is 0 of 6.

What does the source list for CCCCCCOCCN1CCN(CCCN2c3ccccc3Sc3ccc(C(F)(F)F)cc32)CC1?
T/C (dose: 12.5 mg/kg/injection, schedule: Q04DX003 (ip), vehicle: saline with Tween-80): 130 % of control; T/C (dose: 50.0 mg/kg/injection, schedule: Q04DX003 (ip), vehicle: saline with Tween-80): 129 % of control

How did the survivor count (dose: 16.0 mg/kg/injection, schedule: Q01DX009 (ip), vehicle: Klucel (hydroxypropylcellulose) (HPC)) turn out when C=C1CC(OC(C)=O)C2C(OC(=O)C2(C)OC(=O)/C(C)=C\C)C2C(C)=CC(=O)C12 (stereo not given) was run?
The survivor count was 6 of 6.

And the survivor count (dose: 32.0 mg/kg/injection, schedule: Q01DX009 (ip), vehicle: Klucel (hydroxypropylcellulose) (HPC))?
The survivor count was 6 of 6.

How did the T/C [3] turn out when CN1CCC2=C(C1)C(c1ccccc1)c1ccccc12 (stereo not given) was run?
The T/C was 125 % of control.

And the survivor count (dose: 100.0 mg/kg/injection, schedule: Q01DX009 (ip), vehicle: saline)?
Its survivor count is 4 of 6.

With CN(C)c1ccc(C(=O)c2ccc(N(C)C)cc2)cc1 as the compound, how does the T/C [5] read?
The T/C was 127 % of control [5 of 6 alive].

What about the T/C [6] of the same compound?
The T/C was 131 % of control.

What about the T/C (dose: 265.0 mg/kg/injection, schedule: Q01DX009 (ip), vehicle: saline with Tween-80) of the same compound?
The T/C was 135 % of control.

And the T/C [4]?
The T/C was 146 % of control [5 of 6 alive].

And the T/C [1]?
The T/C was 148 % of control.

And the T/C (dose: 400.0 mg/kg/injection, schedule: Q04DX003 (ip), vehicle: saline with Tween-80)?
The T/C was 127 and 135 % of control.

What about the T/C (dose: 600.0 mg/kg/injection, schedule: Q01DX009 (ip), vehicle: saline with Tween-80) of the same compound?
Its T/C is 144 % of control.

And the T/C (dose: 600.0 mg/kg/injection, schedule: Q04DX003 (ip), vehicle: saline with Tween-80)?
The T/C was 140 % of control.

Oc1ccc(Cl)c2cccnc12 was tested. Which survivor count (dose: 100.0 mg/kg/injection, schedule: Q01DX010 (ip), vehicle: carboxymethylcellulose (CMC)) did it give?
Its survivor count is 2 of 6.

How did the survivor count [7] turn out when Clc1c(Cl)c(CBr)c(Cl)c(CBr)c1Cl was run?
The survivor count was 4 of 6.

What about the survivor count (dose: 88.0 mg/kg/injection, schedule: Q01DX009 (ip), vehicle: Klucel (hydroxypropylcellulose) (HPC)) of the same compound?
The survivor count was 6 of 6.

And the T/C (dose: 88.0 mg/kg/injection, schedule: Q04DX003 (ip), vehicle: saline sonified)?
The T/C was 133 % of control.

What about the survivor count (dose: 132.0 mg/kg/injection, schedule: Q01DX009 (ip), vehicle: Klucel (hydroxypropylcellulose) (HPC)) of the same compound?
Its survivor count is 6 of 6.

What about the survivor count (dose: 132.0 mg/kg/injection, schedule: Q04DX003 (ip), vehicle: Klucel (hydroxypropylcellulose) (HPC)) of the same compound?
Its survivor count is 5 of 6.

And the survivor count [6]?
Its survivor count is 1 of 6.

What about the T/C (dose: 200.0 mg/kg/injection, schedule: Q01DX009 (ip), vehicle: saline sonified) of the same compound?
Its T/C is 127 % of control.

And the T/C [8]?
The T/C was 125 % of control.

And the survivor count [8]?
Its survivor count is 2 of 6 and 6 of 6.

What about the survivor count (dose: 300.0 mg/kg/injection, schedule: Q01DX009 (ip), vehicle: Klucel (hydroxypropylcellulose) (HPC)) of the same compound?
Its survivor count is 0 of 6.

And the survivor count (dose: 300.0 mg/kg/injection, schedule: Q04DX003 (ip), vehicle: Klucel (hydroxypropylcellulose) (HPC))?
The survivor count was 2 of 6 and 4 of 6.

And the T/C (dose: 300.0 mg/kg/injection, schedule: Q04DX003 (ip), vehicle: saline sonified)?
Its T/C is 144 % of control.

How did the survivor count [5] turn out when O=C(O)CCC(=O)Nc1cccc(Oc2ccc([N+](=O)[O-])cc2[N+](=O)[O-])c1 was run?
Its survivor count is 6 of 6.

Which results are given for [Ni+2].[SH2+]C([SH2+])=Nc1ccccc1.[SH2+]C([SH2+])=Nc1ccccc1.c1ccc(C[P+](c2ccccc2)(c2ccccc2)c2ccccc2)cc1?
survivor count (dose: 2.5 mg/kg/injection, schedule: Q01DX009 (ip), vehicle: saline): 6 of 6; T/C (dose: 6.0 mg/kg/injection, schedule: Q01DX009 (ip), vehicle: saline): 135 % of control; survivor count (dose: 30.0 mg/kg/injection, schedule: Q01DX009 (ip), vehicle: Klucel (hydroxypropylcellulose) (HPC)): 2 of 6; survivor count [7]: 4 of 6

Which survivor count [4] does the source give for CCCCCCc1c(C(OC)OC)[nH]c(=S)[nH]c1=O here?
Its survivor count is 4 of 6.
